Laboratory results taken from US20190194345A1 (UNIVERSITY OF VIRGINIA PATENT FOUNDATION, published 2019).
Where a chain is given by its changes, count along the chain named. These are yes or no findings as the source states them, for the method shown. Some binding calls cover weakened binding; strength is not graded here. Each block holds one binder with its values, some of them ahead of it.

Legend:
mouse SAS1B [1] = molecular target: T1, mouse SAS1B (mouse, UniProt Q6HA09 24-435, limits assumed); assay: western blot of human SAS1B and mouse SAS1B
T1 sequence (looked up): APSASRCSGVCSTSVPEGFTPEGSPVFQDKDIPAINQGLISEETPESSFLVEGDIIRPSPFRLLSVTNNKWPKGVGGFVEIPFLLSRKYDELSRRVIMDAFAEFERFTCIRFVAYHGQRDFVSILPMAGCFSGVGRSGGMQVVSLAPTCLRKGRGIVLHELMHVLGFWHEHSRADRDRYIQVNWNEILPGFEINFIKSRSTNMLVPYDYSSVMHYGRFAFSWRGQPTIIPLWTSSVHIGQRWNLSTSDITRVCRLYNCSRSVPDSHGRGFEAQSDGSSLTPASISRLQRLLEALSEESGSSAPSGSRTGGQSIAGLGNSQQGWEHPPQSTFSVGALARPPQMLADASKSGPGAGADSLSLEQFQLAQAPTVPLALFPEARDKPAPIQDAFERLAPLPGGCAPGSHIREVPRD

[2] = molecular target: T2, human SAS1B (recombinant antigen) (human) (UniProt Q6HA08); assay: western blot of human SAS1B and mouse SAS1B
T2 sequence: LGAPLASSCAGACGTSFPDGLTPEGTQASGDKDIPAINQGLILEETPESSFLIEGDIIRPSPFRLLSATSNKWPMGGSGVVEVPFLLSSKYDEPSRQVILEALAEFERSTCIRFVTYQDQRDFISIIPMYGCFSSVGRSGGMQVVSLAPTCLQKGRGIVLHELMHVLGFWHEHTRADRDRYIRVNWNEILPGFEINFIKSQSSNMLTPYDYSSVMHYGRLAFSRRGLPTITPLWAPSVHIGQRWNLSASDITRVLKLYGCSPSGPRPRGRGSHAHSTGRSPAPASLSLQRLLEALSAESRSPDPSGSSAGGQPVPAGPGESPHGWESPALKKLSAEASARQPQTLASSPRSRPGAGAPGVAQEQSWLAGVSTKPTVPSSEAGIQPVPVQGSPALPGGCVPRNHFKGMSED

mouse SAS1B [3] = molecular target: T1, mouse SAS1B; assay: summary table: specifically binds mouse and human SAS1B
[4] = molecular target: T2, human SAS1B (recombinant antigen) (human); assay: as above
[5] = molecular target: T3, SAS1B on the surface of live cancer cells (human) (UniProt Q6HA08); assay: live cell indirect immunofluorescence
T3 sequence: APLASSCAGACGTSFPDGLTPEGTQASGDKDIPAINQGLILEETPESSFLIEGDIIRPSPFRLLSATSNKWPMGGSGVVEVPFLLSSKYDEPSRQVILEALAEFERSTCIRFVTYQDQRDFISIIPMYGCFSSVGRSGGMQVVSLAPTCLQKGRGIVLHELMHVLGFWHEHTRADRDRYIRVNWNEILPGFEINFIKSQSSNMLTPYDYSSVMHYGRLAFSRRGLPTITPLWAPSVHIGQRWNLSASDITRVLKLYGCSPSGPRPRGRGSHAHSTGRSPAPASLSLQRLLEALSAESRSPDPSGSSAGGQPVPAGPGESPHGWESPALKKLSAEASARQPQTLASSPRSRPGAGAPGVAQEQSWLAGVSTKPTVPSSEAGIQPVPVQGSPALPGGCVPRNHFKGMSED

[6] = molecular target: T4, endogenous SAS1B extracted from cancer cells (human) (UniProt Q6HA08); assay: western blot, figure legend of FIG. 23
T4 sequence: T3 sequence

[7] = molecular target: T4, endogenous SAS1B extracted from cancer cells (human); assay: western blot of SNU539 RIPA extract, mAb at 3 ug/ml
[8] = molecular target: T4, endogenous SAS1B extracted from cancer cells (human); assay: western blot of uterine cancer cell extract (FIG. 23)
[9] = molecular target: T3, SAS1B on the surface of live cancer cells (human); assay: live cell indirect immunofluorescence, M1 and MMMT539 cells
[10] = molecular target: T3, SAS1B on the surface of live cancer cells (human); assay: live cell immunofluorescence, MPanc96 and 366 cells, 20 ug/mL
[11] = molecular target: T2, human SAS1B (recombinant antigen) (human); assay: summary table: specifically binds human SAS1B (and not mouse SAS1B)
[12] = molecular target: T3, SAS1B on the surface of live cancer cells (human); assay: confocal immunofluorescence on live cells (FIG. 25)
[13] = molecular target: T3, SAS1B on the surface of live cancer cells (human); assay: confocal immunofluorescence, figure legend of FIG. 25
[14] = molecular target: T4, endogenous SAS1B extracted from cancer cells (human); assay: 2-D gel western blot of SNU539 lysate

B1: anti-human SAS1B murine monoclonal antibody SB1 (antibody, IgG2a, V domains shown)
VH: EVQLQQSGPELVKPGSSVKISCKASGYTFTDYNMDWVKQSHGKSLEWIGAINPNNGGTSYNQKFKGKATLTVDKSSSTAYMELRSLTSEDSAVYYCATNEYWGQGTTLTVSS
VL: NIVMTQSPKSMSMSVGERVTLSCKASENVGTYVSWYQQKPEQSPKLLIYGASNRYTGVPDRFTGSGSATDFTLTISSVQAEDLADYHCGQSYSYPWTFGGGTKLEIK
notes: also called SB1 mAb
binding (mouse SAS1B [1]): binds
binding [2]: binds
binding (mouse SAS1B [3]): binds
binding [4]: binds

B2: anti-human SAS1B murine monoclonal antibody SB4 (antibody, IgG2a, V domains shown)
VH: EVQLQQSGPELVKPGSSVKISCKPSGYTFTDYNMVWMKQSHGKSLEWIGAINPNNGGTTYNQKFKGKATLTVDKSSSTAYMELRSLTSEDSAVYYCAPNWDWFAYWGQGTLVTVSA
VL: DVLMTQTPLSLPVSLGDQASISCRSSQSILHSNGNTYLEWYLQKPGQSPKLLIYKVSNRFSGVPDRFSGSGSGTDFTLKISRVEAEDLGVYYCFQGSHVPFTFGSGTKLEIK
notes: Mouse hybridoma antibody, isotype IgG2a-k; also called SB4 mAb
binding [5]: binds
binding [6]: binds
binding [2]: binds
binding [7]: binds
binding [8]: binds
binding [9]: binds
binding [10]: binds
binding [11]: binds

B3: anti-human SAS1B murine monoclonal antibody SB6 (antibody, IgG2b, V domains shown)
VH: B2 VH
VL: B2 VL with T7I
binding [2]: binds
binding [11]: binds

B4: anti-human SAS1B murine monoclonal antibody SB2 (antibody, IgG2b, V domains shown)
VH: B2 VH with P24A, M37V, I51V, T59S, A97V
VL: B2 VL with I29L, L30V, K50N
notes: also called SB2 mAb
binding [5]: binds
binding [6]: binds
binding [2]: binds
binding [7]: binds
binding [12]: binds
binding [13]: binds
binding [8]: binds
binding [9]: binds
binding [11]: binds

B7: anti-human SAS1B murine monoclonal antibody SB5 (antibody, IgG2b, V domains shown)
VH: B2 VH
VL: B2 VL with T7I
notes: Mouse hybridoma antibody, isotype IgG2b-k; also called SB5 mAb
binding [14]: binds
binding [5]: binds
binding [6]: binds
binding [2]: binds
binding [7]: binds
binding [8]: binds
binding [9]: binds
binding [10]: binds
binding [11]: binds

Next, values leading:

binding [5]: binds
binding [6]: binds
binding [2]: binds
binding [8]: binds
binding [9]: binds
binding [11]: binds
B5: anti-human SAS1B murine monoclonal antibody SB3 (antibody, IgG2b, V domains shown)
VH: B2 VH with P24A, M37V, I51V, T59S, A97V
VL: B2 VL with I29L, L30V, K50N
notes: also called SB3 mAb

binding [2]: binds
binding [11]: binds
B6: anti-human SAS1B murine monoclonal antibody SB7 (antibody, IgG2b, V domains shown)
VH: B2 VH
VL: B2 VL with T7I
